The entries are a selection whose mix differs from that of the whole data set. At the low end of the ranking the order means little.
Each sequence was assayed against T1, ELK1 (UniProt P19419) (assay: DAPPL (digital affinity profiling via proximity ligation, sequencing)). Settings: 10 mM Tris-HCl pH 7.5, 50 mM NaCl, 1 mM DTT, 4% glycerol, room temperature, 30 min; GST-TFs on glutathione beads, 16-mer random dsDNA library, 0.1% …; high values mean tight binding; double strand, one strand shown; scale: fold enrichment (6-mer frequency, TF over GST control).
T1 sequence: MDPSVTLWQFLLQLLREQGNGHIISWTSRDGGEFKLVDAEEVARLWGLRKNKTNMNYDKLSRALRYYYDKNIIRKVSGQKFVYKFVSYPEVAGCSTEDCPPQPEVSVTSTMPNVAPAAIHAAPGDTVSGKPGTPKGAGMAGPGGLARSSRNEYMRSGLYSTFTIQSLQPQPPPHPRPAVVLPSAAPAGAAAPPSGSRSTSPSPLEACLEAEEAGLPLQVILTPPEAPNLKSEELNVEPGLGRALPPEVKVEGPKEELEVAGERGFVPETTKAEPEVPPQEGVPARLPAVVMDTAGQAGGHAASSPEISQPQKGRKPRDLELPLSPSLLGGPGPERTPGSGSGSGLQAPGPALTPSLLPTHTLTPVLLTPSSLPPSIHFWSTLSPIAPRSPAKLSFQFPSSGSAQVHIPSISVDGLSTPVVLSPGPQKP

Row | Sequence | binding signal
1 | AATTAC | 1.19
2 | ATCTAT | 1.14
3 | GTCCCG | 1.2
4 | GCCTAA | 1.17
5 | AACTAC | 1.42
6 | TGCACA | 1.18
7 | AATTCG | 1.26
8 | AAATAA | 1.32
9 | TTGTTA | 1.34
10 | CTCCAC | 1.41
11 | ATTGGT | 1.34
12 | TGCTAG | 1.08
13 | TTTCTG | 1.35
14 | TGTTGT | 1.15
15 | TATTGA | 1.16
16 | TTCCCA | 1.3
17 | CTTAGC | 1.17
18 | TCGCCG | 1.24
19 | CACTAC | 1.37
20 | TCACCC | 1.23

Row | Sequence | binding signal
21 | ACGCAC | 1.09
22 | CTTCGT | 1.45
23 | GATCCC | 1.16
24 | CGGCCT | 1.15
25 | CTCATC | 1.36
26 | TGTACG | 1.23
27 | GCTCTC | 1.5
28 | TACGGC | 1.25
29 | AAAGTA | 1.1
30 | ATTCCT | 1.37
31 | TAATTA | 1.2
32 | CTCGAA | 1.12
33 | CTACAA | 1.13
34 | AATCAC | 1.08
35 | CTACGT | 1.23
36 | CATTAC | 1
37 | CCTTTT | 1.46
38 | ACTCGA | 1.48
39 | AAGCCT | 1.22

3 entries drawn at random from those above, as already listed:
Row | Sequence | binding signal
25 | CTCATC | 1.36
34 | AATCAC | 1.08
39 | AAGCCT | 1.22
